PubChem BioAssay AID504791, Drosophila RNAi Screening Center, 2011

Assay: 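Genes of the fly required for silencing by miRNA, siRNA or endo-siRNA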 (primary screen)
System: Drosophila S2-derived reporter cells
Knock-down reagent: long dsRNA against Drosophila genes, about 150-250 ng dsRNA per well (siRNA assay); about 80-120 ng (miRNA assay)
Time to read-out: about 5 days (siRNA assay); about 4 days (miRNA assay)
Conditions: copper sulfate induction of reporters: 25 µM (siRNA assay); 200 mM stated (miRNA assay), 1-2 days before reading
Detection: 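Per-well ratio of Renilla over firefly light, expressed relative to that plate's average ratio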
Active means: 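First-pass picks had plate-scaled ratios over 1.5 for the siRNA assay, over 1.6 for the miRNA assay, or under 0.6; two distinct dsRNAs had to score alike on retest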
The screen tested about 23,000 reagents; below is a random part of those with a known target gene and a result. In the full data, 199 (0.86%) were called active. 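Plate-scaled ratios behind the calls are not deposited; printed light signals are raw; many rows marked increased or decreased are still called inactive.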 A number with no mark means an inactive call. Not stated in the record: the direction of the score.

Target gene,DRSC id,stable siRNA reporter change,miRNA reporter change,"stable assay Renilla, run 1 (luminescence)","stable assay firefly, run 1 (luminescence)"
elB (GeneID 34844),DRSC01379,,,5372,3.82e5
elB (GeneID 34844),DRSC03527,,,6227,4.25e5
COX7A (GeneID 50002),DRSC16514,,,5918,5.54e5
stg (GeneID 43466),DRSC17071,,reporter ratio lowered past the hit cutoff (active),5603,3.82e5
Cpr64Ad (GeneID 38511),DRSC08284,,,7728,4.49e5
ph-d (GeneID 44889),DRSC18819,,,4903,2.14e5
ph-d (GeneID 44889),DRSC23191,,,2892,2.40e5
CG10164 (GeneID 42777),DRSC14197,,,4526,3.83e5
Npc2c (GeneID 41233),DRSC15523,,,6123,3.84e5
Gr59b (GeneID 117484),DRSC04179,,,6183,3.54e5
NaPi-III (GeneID 39255),DRSC10893,,,8528,4.47e5
NaPi-III (GeneID 39255),DRSC10894,reporter ratio raised past the hit cutoff,,4435,1.73e5
NaPi-III (GeneID 39255),DRSC22953,,,4424,3.91e5
Obp56e (GeneID 37267),DRSC07188,,,5966,3.09e5
AANATL5 (GeneID 37210),DRSC05994,,,6591,3.84e5
Mtpalpha (GeneID 34276),DRSC01994,,,6535,4.60e5
CG7029 (GeneID 42703),DRSC16177,,reporter ratio lowered past the hit cutoff,7456,3.03e5
CG31345 (GeneID 41576),DRSC14193,,,6528,4.01e5
CG31345 (GeneID 41576),DRSC14847,,,6560,5.22e5
CG1513 (GeneID 36028),DRSC05194,,,4179,4.32e5
CG1513 (GeneID 36028),DRSC06553,,,3503,3.70e5
CG1513 (GeneID 36028),DRSC06554,,,6508,5.08e5
DptA (GeneID 37183),DRSC07404,,,7970,3.79e5
CG8064 (GeneID 42196),DRSC16373,,,11810,4.63e5
PIG-C (GeneID 38410),DRSC08241,,,5943,3.30e5
Pka-C1 (GeneID 34284),DRSC03399,,,6126,6.16e5
Pka-C1 (GeneID 34284),DRSC23314,,,5186,3.51e5
CG7460 (GeneID 39973),DRSC10850,,,8418,4.63e5
CG30197 (GeneID 246513),DRSC22394,,,5190,4.75e5
pont (GeneID 53439),DRSC17029,,,4471,3.31e5
sle (GeneID 41262),DRSC14557,,,8266,3.67e5
CG8541 (GeneID 38838),DRSC10989,,,7020,4.80e5
CG30323 (GeneID 246539),DRSC07656,,,5023,3.39e5
CG1344 (GeneID 35500),DRSC04837,,,8842,1.28e6
boss (GeneID 43146),DRSC16916,,,6551,3.28e5
Ice1 (GeneID 37701),DRSC04191,reporter ratio raised past the hit cutoff,,8529,2.86e5
CR42545 (GeneID 8674105),DRSC03709,,,7387,4.59e5
Blos1 (GeneID 246439),DRSC05970,,,6814,3.15e5
CG14835 (GeneID 38832),DRSC10205,,,6586,4.64e5
Osi8 (GeneID 40762),DRSC12277,,,7284,4.88e5
Cyp4d2 (GeneID 31192),DRSC18458,,,8518,4.31e5
apt (GeneID 37734),DRSC04671,,,2.60e5,1.59e6
apt (GeneID 37734),DRSC23278,,,3756,3.32e5
TwdlR (GeneID 318586),DRSC14736,,,6603,4.26e5
CG10348 (GeneID 35132),DRSC02043,,,6711,4.70e5
CG10348 (GeneID 35132),DRSC21908,,,8393,4.92e5
CG10348 (GeneID 35132),DRSC23233,,,3828,2.79e5
mRpL16 (GeneID 31150),DRSC18550,,,7726,6.25e5
CG15877 (GeneID 38304),DRSC08485,,,6472,3.90e5

The list goes on (7 carried over from the part before).
Target gene,DRSC id,stable siRNA reporter change,miRNA reporter change,"stable assay Renilla, run 1 (luminescence)","stable assay firefly, run 1 (luminescence)"
apt (GeneID 37734),DRSC23278,,,3756,3.32e5
TwdlR (GeneID 318586),DRSC14736,,,6603,4.26e5
CG10348 (GeneID 35132),DRSC02043,,,6711,4.70e5
CG10348 (GeneID 35132),DRSC21908,,,8393,4.92e5
CG10348 (GeneID 35132),DRSC23233,,,3828,2.79e5
mRpL16 (GeneID 31150),DRSC18550,,,7726,6.25e5
CG15877 (GeneID 38304),DRSC08485,,,6472,3.90e5
Pld3 (GeneID 35384),DRSC03167,,,10816,4.33e5
CG5157 (GeneID 39771),DRSC10488,,,8206,3.87e5
Cf2 (GeneID 33692),DRSC00744,,,4967,1.81e5
Cf2 (GeneID 33692),DRSC23015,,,3792,3.51e5
thoc7 (GeneID 38033),DRSC08512,,,9791,3.13e5
CG32121 (GeneID 317867),DRSC09265,,,4971,2.81e5
kar (GeneID 45883),DRSC14496,,,7911,3.60e5
VepD (GeneID 117331),DRSC22318,reporter ratio raised past the hit cutoff,,5120,1.18e5
Kif19A (GeneID 41717),DRSC16576,,,4144,3.87e5
CG6765 (GeneID 38971),DRSC10706,,,6010,4.00e5
azot (GeneID 35751),DRSC06051,,,6639,4.92e5
CG15721 (GeneID 32247),DRSC19688,,,5638,4.75e5
dtr (GeneID 318856),DRSC01847,,,5684,3.93e5
dmrt99B (GeneID 43495),DRSC15045,,,5303,2.20e5
dmrt99B (GeneID 43495),DRSC22977,,,4272,3.60e5
Ir11a (GeneID 32189),DRSC19699,,,5363,4.91e5
lncRNA:CR32553 (GeneID 318087),DRSC19229,,,5723,4.48e5
CG42795 (GeneID 41252),DRSC12772,,,8370,5.74e5
CG42795 (GeneID 41252),DRSC15533,,,7322,3.38e5
nw (GeneID 3772015),DRSC06749,,,9205,3.19e5
nw (GeneID 3772015),DRSC06896,,,5783,2.84e5
CG18284 (GeneID 34460),DRSC02661,,,6371,7.51e5
CG18284 (GeneID 34460),DRSC20756,,,4679,3.55e5
CG7183 (GeneID 42181),DRSC16210,,,9214,2.59e5
Oseg5 (GeneID 35349),DRSC03209,,,7599,4.20e5
CG9586 (GeneID 34241),DRSC03270,,,8355,3.98e5
CG12017 (GeneID 38404),DRSC08225,,,5428,3.85e5
Fmo-1 (GeneID 37814),DRSC04328,,,8231,1.46e6
TrpRS (GeneID 45399),DRSC14097,,,6000,4.62e5
Fer3 (GeneID 41411),DRSC16133,,,8338,5.30e5
CG1850 (GeneID 35647),DRSC06762,,,5919,3.54e5
CG31534 (retired record) (GeneID 40585),DRSC12141,,,10307,4.84e5
CG31534 (retired record) (GeneID 40585),DRSC12289,,,6946,3.68e5
CG33627 (GeneID 3772219),DRSC05343,,,6531,5.74e5
